Data on two molecules can be found in PMC10941682.

Sequences of proteins named here, by UniProt entry; tags and fusion partners are left off.
UniProt Q8WV24: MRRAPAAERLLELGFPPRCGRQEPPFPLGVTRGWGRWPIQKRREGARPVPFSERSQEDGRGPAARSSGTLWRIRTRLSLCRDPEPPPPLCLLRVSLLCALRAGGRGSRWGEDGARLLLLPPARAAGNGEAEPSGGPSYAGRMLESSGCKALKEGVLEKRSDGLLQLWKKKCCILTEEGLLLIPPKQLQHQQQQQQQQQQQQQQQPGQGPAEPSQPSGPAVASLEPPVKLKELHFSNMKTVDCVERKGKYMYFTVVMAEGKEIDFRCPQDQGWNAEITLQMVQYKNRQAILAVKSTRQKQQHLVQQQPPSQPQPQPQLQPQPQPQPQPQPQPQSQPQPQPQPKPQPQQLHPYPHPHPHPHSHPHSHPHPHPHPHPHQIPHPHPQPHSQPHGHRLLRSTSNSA

The target in the experiment is pleckstrin homology-like domain family A member 1 (human (endogenous in IMR-32)) (UniProt Q8WV24). Briefly: affinity purification with mass spectrometry; endogenous PHLDA1 precipitated with mouse anti-PHLDA1 (sc-23866) on Dynabeads Protein G from pre-cleared lysates of PBS- or ch14.18/CHO-treated IMR-32 cells (50 mM Tris-HCl pH 7.6, 150 mM NaCl, 0.5% NP-40), overnight at 4°C; isotype IgG2a control; on-bead trypsin digest, LC-MS, semi-quantitative sample/control ratio.

No constants are given. Whether binding was seen depends on the method and setting. Binding seen in cells or lysates may run through a third protein. Here binding means that the protein was enriched with, or labelled near, the bait; the list need not be complete.

B1: DDB1- and CUL4-associated factor 7 (protein, UniProt P61962 1-342)
chain: MSLHGKRKEIYKYEAPWTVYAMNWSVRPDKRFRLALGSFVEEYNNKVQLVGLDEESSEFICRNTFDHPYPTTKLMWIPDTKGVYPDLLATSGDYLRVWRVGETETRLECLLNNNKNSDFCAPLTSFDWNEVDPYLLGTSSIDTTCTIWGLETGQVLGRVNLVSGHVKTQLIAHDKEVYDIAFSRAGGGRDMFASVGADGSVRMFDLRHLEHSTIIYEDPQHHPLLRLCWNKQDPNYLATMAMDGMEVVILDVRVPCTPVARLNNHRACVNGIAWAPHSSCHICTAADDHQALIWDIQQMPRAIEDPILAYTAEGEINNVQWASTQPDWIAICYNNCLEILRV
In the case of B1, the binding result was “binds”.

B2: autism susceptibility gene 2 protein (protein, UniProt Q8WXX7 1-1259)
chain: MDGPTRGHGLRKKRRSRSQRDRERRSRGGLGAGAAGGGGAGRTRALSLASSSGSDKEDNGKPPSSAPSRPRPPRRKRRESTSAEEDIIDGFAMTSFVTFEALEKDVALKPQERVEKRQTPLTKKKREALTNGLSFHSKKSRLSHPHHYSSDRENDRNLCQHLGKRKKMPKALRQLKPGQNSCRDSDSESASGESKGFHRSSSRERLSDSSAPSSLGTGYFCDSDSDQEEKASDASSEKLFNTVIVNKDPELGVGTLPEHDSQDAGPIVPKISGLERSQEKSQDCCKEPIFEPVVLKDPCPQVAQPIPQPQTEPQLRAPSPDPDLVQRTEAPPQPPPLSTQPPQGPPEAQLQPAPQPQVQRPPRPQSPTQLLHQNLPPVQAHPSAQSLSQPLSAYNSSSLSLNSLSSSRSSTPAKTQPAPPHISHHPSASPFPLSLPNHSPLHSFTPTLQPPAHSHHPNMFAPPTALPPPPPLTSGSLQVAGHPAGSTYSEQDILRQELNTRFLASQSADRGASLGPPPYLRTEFHQHQHQHQHTHQHTHQHTFTPFPHAIPPTAIMPTPAPPMFDKYPTKVDPFYRHSLFHSYPPAVSGIPPMIPPTGPFGSLQGAFQPKTSNPIDVAARPGTVPHTLLQKDPRLTDPFRPMLRKPGKWCAMHVHIAWQIYHHQQKVKKQMQSDPHKLDFGLKPEFLSRPPGPSLFGAIHHPHDLARPSTLFSAAGAAHPTGTPFGPPPHHSNFLNPAAHLEPFNRPSTFTGLAAVGGNAFGGLGNPSVTPNSMFGHKDGPSVQNFSNPHEPWNRLHRTPPSFPTPPPWLKPGELERSASAAAHDRDRDVDKRDSSVSKDDKERESVEKRHSSHPSPAPVLPVNALGHTRSSTEQIRAHLNTEAREKDKPKERERDHSESRKDLAADEHKAKEGHLPEKDGHGHEGRAAGEEAKQLARVPSPYVRTPVVESARPNSTSSREAEPRKGEPAYENPKKSSEVKVKEERKEDHDLPPEAPQTHRASEPPPPNSSSSVHPGPLASMPMTVGVTGIHPMNSISSLDRTRMMTPFMGISPLPGGERFPYPSFHWDPIRDPLRDPYRELDIHRRDPLGRDFLLRNDPLHRLSTPRLYEADRSFRDREPHDYSHHHHHHHHPLSVDPRREHERGGHLDERERLHMLREDYEHTRLHSVHPASLDGHLPHPSLITPGLPSMHYPRISPTAGNQNGLLNKTPPTAALSAPPPLISTLGGRPVSPRRTTPLSAEIRERPPSHTLKDIEAR
Regarding B2, the binding result is given as “binds”.
